Data reported in PMC9652399.
Results are given in words; binding and its absence hold for the method and conditions named. In cells and extracts the contact can be indirect. Some results given as binding are weak or reduced against the parent protein; the word gives no strength.

Chains of the proteins cited; added tags and fusions are not shown. Lines headed by an entry give the natural chain unless they say otherwise; changes in a name come on top. A line that says so, or that is headed by a name, gives the form on record, which may keep a tag or linker. Residues count along the entry.
Siglec-6 (sialic acid-binding immunoglobulin-like lectin 6), wild type, FLAG-tagged (O43699, residues 27-453): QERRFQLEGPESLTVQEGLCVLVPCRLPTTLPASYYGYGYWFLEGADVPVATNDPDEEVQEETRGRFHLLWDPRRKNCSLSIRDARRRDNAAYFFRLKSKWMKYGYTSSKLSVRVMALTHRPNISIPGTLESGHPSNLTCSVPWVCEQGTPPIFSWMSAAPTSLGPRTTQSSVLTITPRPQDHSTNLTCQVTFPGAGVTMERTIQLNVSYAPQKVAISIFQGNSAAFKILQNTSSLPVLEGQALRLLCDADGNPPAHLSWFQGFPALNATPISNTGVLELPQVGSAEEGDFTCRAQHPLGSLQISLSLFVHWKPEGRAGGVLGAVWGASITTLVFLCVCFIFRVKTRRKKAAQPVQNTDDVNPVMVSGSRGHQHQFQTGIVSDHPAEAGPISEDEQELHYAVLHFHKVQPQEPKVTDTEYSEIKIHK
Siglec-6 Y426F (proximal ITIM mutant), FLAG-tagged (O43699, form named): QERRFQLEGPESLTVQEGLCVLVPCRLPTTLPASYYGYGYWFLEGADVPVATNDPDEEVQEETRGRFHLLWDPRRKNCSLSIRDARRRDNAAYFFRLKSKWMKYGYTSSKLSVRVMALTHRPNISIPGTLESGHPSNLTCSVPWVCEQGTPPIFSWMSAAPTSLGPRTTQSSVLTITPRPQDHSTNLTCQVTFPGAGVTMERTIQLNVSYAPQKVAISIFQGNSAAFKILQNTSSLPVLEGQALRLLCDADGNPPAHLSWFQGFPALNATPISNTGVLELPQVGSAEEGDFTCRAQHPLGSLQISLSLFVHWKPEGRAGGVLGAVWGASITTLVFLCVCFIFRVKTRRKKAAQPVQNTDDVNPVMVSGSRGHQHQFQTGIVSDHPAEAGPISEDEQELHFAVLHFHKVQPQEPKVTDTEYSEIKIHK
Siglec-6 Y446F (distal ITIM-like mutant), FLAG-tagged (O43699, form named): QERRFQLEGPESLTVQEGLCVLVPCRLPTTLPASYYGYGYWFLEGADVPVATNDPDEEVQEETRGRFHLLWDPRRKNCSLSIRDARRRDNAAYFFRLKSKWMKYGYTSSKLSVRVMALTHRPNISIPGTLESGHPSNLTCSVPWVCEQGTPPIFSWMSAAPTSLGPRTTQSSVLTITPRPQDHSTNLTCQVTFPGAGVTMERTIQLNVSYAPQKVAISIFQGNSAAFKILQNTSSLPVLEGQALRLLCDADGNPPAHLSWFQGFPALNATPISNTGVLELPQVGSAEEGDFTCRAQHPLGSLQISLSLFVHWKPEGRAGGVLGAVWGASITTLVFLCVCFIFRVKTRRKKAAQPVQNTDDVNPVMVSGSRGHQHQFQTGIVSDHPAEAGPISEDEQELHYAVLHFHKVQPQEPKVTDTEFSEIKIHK
UniProt P29351: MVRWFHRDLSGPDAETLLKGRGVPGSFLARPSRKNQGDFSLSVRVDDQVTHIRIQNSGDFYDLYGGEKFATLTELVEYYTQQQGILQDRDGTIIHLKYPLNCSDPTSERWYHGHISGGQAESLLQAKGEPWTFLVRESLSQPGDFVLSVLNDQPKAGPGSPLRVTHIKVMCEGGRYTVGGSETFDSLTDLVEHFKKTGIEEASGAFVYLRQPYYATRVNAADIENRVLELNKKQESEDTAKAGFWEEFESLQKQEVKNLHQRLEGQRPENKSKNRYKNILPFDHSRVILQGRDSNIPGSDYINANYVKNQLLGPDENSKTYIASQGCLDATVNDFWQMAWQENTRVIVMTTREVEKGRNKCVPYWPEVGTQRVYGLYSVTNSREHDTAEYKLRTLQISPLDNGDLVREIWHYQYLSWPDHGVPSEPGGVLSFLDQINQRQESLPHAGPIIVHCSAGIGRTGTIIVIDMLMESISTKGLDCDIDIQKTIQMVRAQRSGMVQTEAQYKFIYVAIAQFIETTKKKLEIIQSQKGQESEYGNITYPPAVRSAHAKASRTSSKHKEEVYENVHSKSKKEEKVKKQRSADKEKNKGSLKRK

What was measured:
Experiment in all cases: co-IP; anti-FLAG magnetic agarose IP (30 min, room temperature) from lysates (Pierce IP lysis buffer) of mouse BMMCs co-transfected with WT or mutant Siglec-6-FLAG and Shp-1-HA or Shp-2-HA; cells treated with pervanadate for 2 min; blots for HA, Shp-1/2, FLAG and p-Tyr
[1] = biological target: Siglec-6 (sialic acid-binding immunoglobulin-like lectin 6), wild type, FLAG-tagged (human) (UniProt O43699)
[2] = biological target: Siglec-6 Y426F (proximal ITIM mutant), FLAG-tagged (human) (UniProt O43699)
[3] = biological target: Siglec-6 Y446F (distal ITIM-like mutant), FLAG-tagged (human) (UniProt O43699)

Measured: binding

Shp-1, HA-tagged (from UniProt P29351 1-595) (enzyme)
binds: all assays above
